Measured values as given in publication PMC4232310.
No constants are given. Whether binding was seen depends on the method and setting. Binding seen in cells or lysates may run through a third protein. Some results given as binding are weak or reduced against the parent protein; the word gives no strength. Tags and fused reporters may be left off the sequences shown.

Columns and labels:
Assay in all cases: co-IP; dss1Δ S. pombe expressing Dss1-GFP fusion proteins; immunoprecipitation with antibodies to GFP; western blot for Mts4/Rpn1 and GFP
[1] = molecular target: T1, Dss1-GFP fusion protein, wild-type (S. pombe) (UniProt O14140)
T1 sequence: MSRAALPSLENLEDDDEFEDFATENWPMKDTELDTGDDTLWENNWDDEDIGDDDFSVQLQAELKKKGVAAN

[2] = molecular target: T2, Dss1-GFP fusion protein, mutated in both UBS-I and UBS-II (S. pombe) (UniProt O14140)
T2 sequence: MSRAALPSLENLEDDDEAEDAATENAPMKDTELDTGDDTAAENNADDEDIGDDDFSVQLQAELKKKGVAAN

[3] = molecular target: T3, Dss1-GFP fusion protein, UBS-II mutant (S. pombe) (UniProt O14140)
T3 sequence: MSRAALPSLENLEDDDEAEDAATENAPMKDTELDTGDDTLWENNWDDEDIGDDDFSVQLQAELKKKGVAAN

[4] = molecular target: T4, Dss1-GFP fusion protein, UBS-I mutant (S. pombe) (UniProt O14140)
T4 sequence: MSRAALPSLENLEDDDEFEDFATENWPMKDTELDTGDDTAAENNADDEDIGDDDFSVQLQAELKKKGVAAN

B1: proteasome subunit Mts4/Rpn1 (protein, UniProt P87048 1-891)
chain: MSSKDISSKSPSGNDALNDKKGTKTSETNDRNSTNNTKERDELEDLSEEDLQLKNDLELLVQAVQDATPELVGSSLTQLKEIIRTSTSSMTAVPKPLKFLRPHYFTLVKIYDSWPQSPQKTQLADILSVLGMSYSNTSKHESLKYRLQGVTTDPSLWGHEYVRHLASEIEEEFASRQEEEAPTDDLMELALTIVPFFLTHNAEADAIDLLQELGAIEKVVPFVELDNASRVCLYITSCVNLLPFPEDVAMLRTAHAIYRKFDQLTQALNVAIRLDDMSLIKEDCEAATDPLLKKQMSYMLARQQIPMDMGDEELNDALNNTHLSDHFHYLGKELNLMDPKVPEDIFKTHLEVARTGLGASGVYSAKQNLANTFVNALVNAGYSNDRLILVDDEKTSWIYKNKESGLISATASIGLLQLWNVDMGLSLLDKYLYSSEENTKAGALLGIGVTNVAVRNEADPAMAILSEYLETGSVKLRASAILGLGLAYSGANREDLLDMLSPIVTDTDCPMQLSCLAALSLGLIFVGTCNGDVASTILQTLMEREESAQNDQWGRFMALGLALLFNGKQDLADATVETLKAIEGKIARQAEILVDICSYAGTGNVLHIQKLLHICSEPPSDDAKESETTIQTFAALGVATIAMGEDIGAEMVLRHFDHMMHYGEPSIRKAIPLALGLLSASNPQMRIFDTLSRYSHDNDLDVAYNAIFAMGLVGAGTSNARLAQLLRQLASYYHKESNALFMVRIAQGLLYLGKGTMTLNPYHTERQILGQTAFAGLMTVVLAMLDANTFVLDTSHWLLYAITLAIRPRMLITLGEDGQYLPVSVRVGQAVDVVGQAGRPKVITGWVTHTTPVLLHHNERAELATEAYTPLTSLEGIVILKKNTEDIEMTA
With B1 the binding [1] was “binds”, the binding [2] was “no binding” and the binding [3] was “binds”. For the same binder, the binding [4] was “binds”.
